Further values from the same series stand in other lists. *1 amine or outer side, *2 acyl side, *3 side chain or, on linkers, in order; H or OH if unused. Where a SMILES comes first, the peptide text is derived from it. Bridges are numbered along the chain shown (N, C = ends). Roman numbers before positions name the chains, in order. [ ]: non-standard residue; d: D form. The star is where a group is joined. ξ: configuration not given here. TATA = O=C(CC[*:1])N1CN(C(=O)CC[*:2])CN(C(=O)CC[*:3])C1; Dolaproine = CO[C@@H]([C@@H]1CCCN1)[C@@H](C)C(=O)O; X1 = CC[C@H](C)C(C(CC(=O)[*:2])OC)N(C)[*:1]; 1Nal = N[C@@H](Cc1cccc2ccccc12)C(=O)O; X3 = O=C(CCCC(=O)[*:2])NCCC(=O)[*:1]; PABC = O=C(OCc1ccc(N[*:1])cc1)[*:2]; Hyp = O=C(O)[C@@H]1C[C@@H](O)CN1; hArg = N=C(N)NCCCC[C@H](N)C(=O)O; Cit = NC(=O)NCCC[C@H](N)C(=O)O; X2 = CC(N*)[C@@H](O)c1ccccc1; ξNMeV = CNC(C(=O)O)C(C)C; ξV = CC(C)C(N)C(=O)O; Sar = CNCC(=O)O
Test system: MDA-MB-468 xenograft
Assay: Example 9.8: in vivo efficacy of BCY8245, BCY8781 and BCY8245 with BCY8234 in MDA-MB-468 xenograft in Balb/c nude mice
Design: species or system Mus Musculus

With CC[C@H](C)C(C(CC(=O)N1CCC[C@H]1[C@H](OC)[C@@H](C)C(=O)NC(C)[C@@H](O)c1ccccc1)OC)N(C)C(=O)[C@@H](NC(=O)C(C(C)C)N(C)C(=O)OCc1ccc(NC(=O)[C@H](CCCNC(N)=O)NC(=O)C(NC(=O)CCCC(=O)NCCC(=O)N(C)CC(=O)N(C)CC(=O)N(C)CC(=O)N(C)CC(=O)N(C)CC(=O)N(C)CC(=O)N(C)CC(=O)N(C)CC(=O)N(C)CC(=O)N(C)CC(=O)N[C@H]2CSCCC(=O)N3CN4CN(C3)C(=O)CCSC[C@H](NC(=O)[C@@H](CC(=O)O)NC(=O)[C@H](Cc3cccc5ccccc35)NC(=O)[C@@H]3CCCN3C2=O)C(=O)N[C@@H](CCSC)C(=O)N[C@@H](CCCCNC(=N)N)C(=O)N[C@@H](CC(=O)O)C(=O)N[C@@H](Cc2c[nH]c3ccccc23)C(=O)N[C@@H](CO)C(=O)N[C@@H]([C@@H](C)O)C(=O)N2CCC[C@H]2C(=O)N2C[C@H](O)C[C@H]2C(=O)N[C@@H](Cc2c[nH]c3ccccc23)C(=O)N[C@H](C(N)=O)CSCCC4=O)C(C)C)cc1)C(C)C (stereo partly drawn) [BCY8245, MMAE-PABC-Cit-Val-Glutaryl-BCY8234] (I: [Sar][Sar][Sar][Sar][Sar][Sar][Sar][Sar][Sar][Sar]CP[1Nal][dD]CM[hArg]DWSTP[Hyp]WC-NH2 / II: [ξV][Cit][PABC][ξNMeV]V[X1][Dolaproine]-X2; linker I:11-I:15-I:25 via TATA; linker I:N-II:N via X3) the Tumor volume (1 mpk, qw, day 32) was 239 ± 16 mm^3, the Tumor volume (1 mpk, qw, day 35) was 255 ± 15 mm^3 and the Tumor volume (1 mpk, qw, day 37) was 292 ± 19 mm^3. It also gave a Tumor volume (1 mpk, qw, day 39) of 304 ± 36 mm^3, a Tumor volume (1 mpk, qw, day 42) of 314 ± 42 mm^3 and a Tumor volume (1 mpk, qw, day 44) of 327 ± 42 mm^3. The Tumor volume (1 mpk, qw, day 46) was 342 ± 55 mm^3, the Tumor volume (1 mpk, qw, day 49) was 356 ± 59 mm^3 and the Tumor volume (1 mpk, qw, day 51) was 374 ± 71 mm^3. It also gave a Tumor volume (1 mpk, qw, day 53) of 381 ± 87 mm^3, a Tumor volume (1 mpk, qw, day 56) of 416 ± 104 mm^3 and a Tumor volume (1 mpk, qw, day 58) of 433 ± 113 mm^3. It also gave a Tumor volume (1 mpk, qw, day 60) of 464 ± 119 mm^3, a Tumor volume (1 mpk, qw, day 64) of 532 ± 154 mm^3 and a Tumor volume (1 mpk, qw, day 67) of 550 ± 162 mm^3. For the same compound, the Tumor volume (1 mpk, qw, day 71) was 565 ± 170 mm^3, the Tumor volume (1 mpk, qw, day 74) was 594 ± 173 mm^3 and the Tumor volume (1 mpk, qw, day 78) was 612 ± 195 mm^3. The Tumor volume (1 mpk, qw, day 81) was 639 ± 206 mm^3, the Tumor volume (1 mpk, qw, day 84) was 695 ± 234 mm^3 and the Tumor volume (1 mpk, qw, day 88) was 743 ± 236 mm^3. For the same compound, the Tumor volume (1 mpk, qw, day 91) was 771 ± 240 mm^3, the Tumor volume (3 mpk, qw, i.v., day 0 after the start of treatment) was 181 mm^3 and the Tumor volume (3 mpk, qw, i.v., day 2) was 171 mm^3. It also gave a Tumor volume (3 mpk, qw, i.v., day 4) of 163 mm^3, a Tumor volume (3 mpk, qw, i.v., day 7) of 141 mm^3 and a Tumor volume (3 mpk, qw, i.v., day 9) of 113 mm^3. The Tumor volume (3 mpk, qw, i.v., day 11) was 92 mm^3, the Tumor volume (3 mpk, qw, i.v., day 14) was 66 mm^3 and the Tumor volume (3 mpk, qw, i.v., day 16) was 58 mm^3. The Tumor volume (3 mpk, qw, i.v., day 18) was 41 mm^3, the Tumor volume (3 mpk, qw, i.v., day 21) was 27 mm^3 and the “Tumor volume” value (3 mpk, qw, Mean ± SEM) was 27 ± 1 mm^3. For the same compound, the Tumor volume (3 mpk, qw, day 23) was 22 ± 3 mm^3, the Tumor volume (3 mpk, qw, day 25) was 19 ± 3 mm^3 and the Tumor volume (3 mpk, qw, day 28) was 20 ± 3 mm^3. For the same compound, the Tumor volume (3 mpk, qw, day 30) was 15 ± 2 mm^3, the Tumor volume (3 mpk, qw, day 32) was 15 ± 1 mm^3 and the Tumor volume (3 mpk, qw, day 35) was 19 ± 2 mm^3. The Tumor volume (3 mpk, qw, day 37) was 16 ± 2 mm^3, the Tumor volume (3 mpk, qw, day 39) was 14 ± 1 mm^3 and the Tumor volume (3 mpk, qw, day 42) was 14 ± 2 mm^3. It also gave a Tumor volume (3 mpk, qw, day 44) of 18 ± 4 mm^3, a Tumor volume (3 mpk, qw, day 46) of 19 ± 4 mm^3 and a Tumor volume (3 mpk, qw, day 49) of 20 ± 4 mm^3. It also gave a Tumor volume (3 mpk, qw, day 51) of 18 ± 5 mm^3, a Tumor volume (3 mpk, qw, day 53) of 22 ± 4 mm^3 and a Tumor volume (3 mpk, qw, day 56) of 21 ± 4 mm^3. For the same compound, the Tumor volume (3 mpk, qw, day 58) was 20 ± 5 mm^3, the Tumor volume (3 mpk, qw, day 60) was 18 ± 6 mm^3 and the Tumor volume (3 mpk, qw, day 64) was 23 ± 6 mm^3. For the same compound, the Tumor volume (3 mpk, qw, day 67) was 23 ± 5 mm^3, the Tumor volume (3 mpk, qw, day 71) was 24 ± 7 mm^3 and the Tumor volume (3 mpk, qw, day 74) was 27 ± 8 mm^3. For the same compound, the Tumor volume (3 mpk, qw, day 78) was 23 ± 6 mm^3, the Tumor volume (3 mpk, qw, day 81) was 27 ± 8 mm^3 and the Tumor volume (3 mpk, qw, day 84) was 34 ± 7 mm^3. For the same compound, the Tumor volume (3 mpk, qw, day 88) was 32 ± 7 mm^3, the Tumor volume (3 mpk, qw, day 91) was 26 ± 6 mm^3 and the Tumor volume (Group 1 (vehicle, qw) dosed with 5 mpk on PG-D32, day 35) was 455 ± 81 mm^3. The Tumor volume (Group 1 (vehicle, qw) dosed with 5 mpk on PG-D32, day 37) was 373 ± 92 mm^3, the Tumor volume (Group 1 (vehicle, qw) dosed with 5 mpk on PG-D32, day 39) was 247 ± 48 mm^3 and the Tumor volume (Group 1 (vehicle, qw) dosed with 5 mpk on PG-D32, day 42) was 134 ± 18 mm^3. For the same compound, the Tumor volume (Group 1 (vehicle, qw) dosed with 5 mpk on PG-D32, day 44) was 108 ± 3 mm^3, the Tumor volume (Group 1 (vehicle, qw) dosed with 5 mpk on PG-D32, day 46) was 79 ± 3 mm^3 and the Tumor volume (Group 1 (vehicle, qw) dosed with 5 mpk on PG-D32, day 49) was 63 ± 8 mm^3. For the same compound, the Tumor volume (Group 1 (vehicle, qw) dosed with 5 mpk on PG-D32, day 51) was 62 ± 5 mm^3, the Tumor volume (Group 1 (vehicle, qw) dosed with 5 mpk on PG-D32, day 53) was 53 ± 12 mm^3 and the Tumor volume (Group 1 (vehicle, qw) dosed with 5 mpk on PG-D32, day 56) was 52 ± 13 mm^3. It also gave a Tumor volume (Group 1 (vehicle, qw) dosed with 5 mpk on PG-D32, day 58) of 58 ± 0 mm^3, a Tumor volume (Group 1 (vehicle, qw) dosed with 5 mpk on PG-D32, day 60) of 61 ± 7 mm^3 and a Tumor volume (Group 1 (vehicle, qw) dosed with 5 mpk on PG-D32, day 64) of 71 ± 23 mm^3. It also gave a Tumor volume (Group 1 (vehicle, qw) dosed with 5 mpk on PG-D32, day 67) of 66 ± 14 mm^3, a Tumor volume (Group 1 (vehicle, qw) dosed with 5 mpk on PG-D32, day 71) of 73 ± 5 mm^3 and a Tumor volume (Group 1 (vehicle, qw) dosed with 5 mpk on PG-D32, day 74) of 82 ± 4 mm^3. For the same compound, the Tumor volume (Group 1 (vehicle, qw) dosed with 5 mpk on PG-D32, day 78) was 90 ± 8 mm^3, the Tumor volume (Group 1 (vehicle, qw) dosed with 5 mpk on PG-D32, day 81) was 104 ± 17 mm^3 and the Tumor volume (Group 1 (vehicle, qw) dosed with 5 mpk on PG-D32, day 84) was 110 ± 1 mm^3. The Tumor volume (Group 1 (vehicle, qw) dosed with 5 mpk on PG-D32, day 88) was 106 ± 7 mm^3 and the Tumor volume (Group 1 (vehicle, qw) dosed with 5 mpk on PG-D32, day 91) was 110 ± 3 mm^3.

Reference: patent publication US12459974B2, “Bicyclic peptide ligands specific for Nectin-4” (priority 2018, dated 2025)
